This passage reports binding results from PMC10068336.

Protein sequences, listed by entry. Tags and fused reporters are not part of them. Lines headed by an entry give the natural chain unless they say otherwise; changes in a name come on top.
UniProt P31539: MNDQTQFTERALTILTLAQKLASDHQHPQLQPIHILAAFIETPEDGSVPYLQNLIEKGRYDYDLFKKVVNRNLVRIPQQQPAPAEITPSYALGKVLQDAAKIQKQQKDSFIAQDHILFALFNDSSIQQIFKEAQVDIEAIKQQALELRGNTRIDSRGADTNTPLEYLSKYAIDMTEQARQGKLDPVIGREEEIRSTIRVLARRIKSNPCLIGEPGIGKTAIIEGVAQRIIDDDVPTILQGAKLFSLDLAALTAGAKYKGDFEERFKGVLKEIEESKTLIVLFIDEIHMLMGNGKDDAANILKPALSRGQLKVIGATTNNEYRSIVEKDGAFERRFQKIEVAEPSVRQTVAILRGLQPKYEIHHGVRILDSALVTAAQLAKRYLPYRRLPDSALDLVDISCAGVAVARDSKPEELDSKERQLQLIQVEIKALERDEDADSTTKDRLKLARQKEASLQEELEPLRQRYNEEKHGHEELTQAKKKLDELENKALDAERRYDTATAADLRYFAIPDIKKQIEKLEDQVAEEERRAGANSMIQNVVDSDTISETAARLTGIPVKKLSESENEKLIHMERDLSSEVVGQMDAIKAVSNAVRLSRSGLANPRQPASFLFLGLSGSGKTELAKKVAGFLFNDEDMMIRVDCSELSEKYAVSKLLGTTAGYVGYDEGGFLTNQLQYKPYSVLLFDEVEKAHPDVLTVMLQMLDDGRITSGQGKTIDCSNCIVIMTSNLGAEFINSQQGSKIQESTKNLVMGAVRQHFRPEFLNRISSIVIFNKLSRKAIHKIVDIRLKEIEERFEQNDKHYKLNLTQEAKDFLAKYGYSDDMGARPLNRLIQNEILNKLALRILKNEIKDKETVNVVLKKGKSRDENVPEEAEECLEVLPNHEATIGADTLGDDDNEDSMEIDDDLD
UniProt P04039: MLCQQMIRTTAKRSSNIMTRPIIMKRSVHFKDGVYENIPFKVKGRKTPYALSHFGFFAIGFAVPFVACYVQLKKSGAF
UniProt Q01217: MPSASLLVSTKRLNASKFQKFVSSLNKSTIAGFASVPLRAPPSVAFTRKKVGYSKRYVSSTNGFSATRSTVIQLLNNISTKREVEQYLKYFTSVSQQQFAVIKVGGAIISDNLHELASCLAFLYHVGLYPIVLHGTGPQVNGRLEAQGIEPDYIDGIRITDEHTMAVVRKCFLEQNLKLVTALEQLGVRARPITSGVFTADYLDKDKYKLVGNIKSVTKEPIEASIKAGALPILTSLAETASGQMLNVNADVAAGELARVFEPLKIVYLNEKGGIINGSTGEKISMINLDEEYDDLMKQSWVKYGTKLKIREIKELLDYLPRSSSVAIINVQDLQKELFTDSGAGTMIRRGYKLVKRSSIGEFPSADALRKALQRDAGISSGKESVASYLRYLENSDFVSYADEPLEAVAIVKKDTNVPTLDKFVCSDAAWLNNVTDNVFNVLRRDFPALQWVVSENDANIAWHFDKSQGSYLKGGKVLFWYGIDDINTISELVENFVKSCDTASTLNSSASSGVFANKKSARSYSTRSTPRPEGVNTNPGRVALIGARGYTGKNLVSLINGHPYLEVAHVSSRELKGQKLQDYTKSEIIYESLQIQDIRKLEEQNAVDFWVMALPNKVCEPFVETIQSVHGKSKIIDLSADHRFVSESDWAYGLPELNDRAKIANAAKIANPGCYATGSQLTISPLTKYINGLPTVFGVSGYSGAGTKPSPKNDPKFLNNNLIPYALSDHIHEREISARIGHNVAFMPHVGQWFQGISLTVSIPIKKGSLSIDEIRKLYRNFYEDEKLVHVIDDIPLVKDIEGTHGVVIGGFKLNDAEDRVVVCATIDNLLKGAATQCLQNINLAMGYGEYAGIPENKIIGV
UniProt P00358: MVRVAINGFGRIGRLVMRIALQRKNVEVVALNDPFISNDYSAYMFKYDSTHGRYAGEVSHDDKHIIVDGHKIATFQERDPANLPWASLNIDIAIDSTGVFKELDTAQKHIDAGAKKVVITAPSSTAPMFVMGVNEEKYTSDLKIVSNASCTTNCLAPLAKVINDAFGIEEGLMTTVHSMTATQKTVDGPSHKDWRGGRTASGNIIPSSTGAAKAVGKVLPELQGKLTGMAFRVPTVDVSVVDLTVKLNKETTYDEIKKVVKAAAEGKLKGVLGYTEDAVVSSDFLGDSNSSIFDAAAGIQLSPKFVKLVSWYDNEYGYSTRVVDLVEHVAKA
UniProt P32473: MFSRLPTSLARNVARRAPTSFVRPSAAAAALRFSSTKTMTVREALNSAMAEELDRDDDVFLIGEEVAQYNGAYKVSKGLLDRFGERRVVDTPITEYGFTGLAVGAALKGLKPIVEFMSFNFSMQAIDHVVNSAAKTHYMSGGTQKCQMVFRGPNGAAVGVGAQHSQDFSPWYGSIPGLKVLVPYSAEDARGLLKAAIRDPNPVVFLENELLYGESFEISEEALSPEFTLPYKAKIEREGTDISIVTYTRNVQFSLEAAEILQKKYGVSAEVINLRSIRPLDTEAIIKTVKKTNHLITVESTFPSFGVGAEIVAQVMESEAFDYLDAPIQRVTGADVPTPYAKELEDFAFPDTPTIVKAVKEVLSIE
UniProt P40513: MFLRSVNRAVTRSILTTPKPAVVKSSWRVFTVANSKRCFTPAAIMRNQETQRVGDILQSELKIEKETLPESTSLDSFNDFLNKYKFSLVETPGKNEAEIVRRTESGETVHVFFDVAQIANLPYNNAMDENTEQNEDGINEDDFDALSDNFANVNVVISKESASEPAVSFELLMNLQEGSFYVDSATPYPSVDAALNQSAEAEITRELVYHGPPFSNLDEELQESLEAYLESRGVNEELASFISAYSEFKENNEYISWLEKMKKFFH
UniProt Q12329: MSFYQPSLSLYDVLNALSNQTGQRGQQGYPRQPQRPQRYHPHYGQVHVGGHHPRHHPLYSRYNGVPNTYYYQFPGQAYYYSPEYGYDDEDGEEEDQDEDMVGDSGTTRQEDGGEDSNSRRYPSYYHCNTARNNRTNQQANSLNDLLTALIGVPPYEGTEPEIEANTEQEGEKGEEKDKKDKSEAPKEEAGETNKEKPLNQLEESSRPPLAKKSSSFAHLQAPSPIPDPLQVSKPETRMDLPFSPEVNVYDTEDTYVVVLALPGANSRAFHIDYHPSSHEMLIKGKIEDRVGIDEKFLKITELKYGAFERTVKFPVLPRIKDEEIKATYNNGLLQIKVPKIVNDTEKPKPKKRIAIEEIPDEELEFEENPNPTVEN
UniProt Q12349: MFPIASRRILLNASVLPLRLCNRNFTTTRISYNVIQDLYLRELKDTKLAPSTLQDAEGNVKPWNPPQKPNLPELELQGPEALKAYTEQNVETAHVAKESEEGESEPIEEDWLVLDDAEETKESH
UniProt P32799: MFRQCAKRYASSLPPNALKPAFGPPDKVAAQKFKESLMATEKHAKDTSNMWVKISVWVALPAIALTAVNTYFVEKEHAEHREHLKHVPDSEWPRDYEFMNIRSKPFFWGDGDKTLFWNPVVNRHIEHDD
UniProt P39522: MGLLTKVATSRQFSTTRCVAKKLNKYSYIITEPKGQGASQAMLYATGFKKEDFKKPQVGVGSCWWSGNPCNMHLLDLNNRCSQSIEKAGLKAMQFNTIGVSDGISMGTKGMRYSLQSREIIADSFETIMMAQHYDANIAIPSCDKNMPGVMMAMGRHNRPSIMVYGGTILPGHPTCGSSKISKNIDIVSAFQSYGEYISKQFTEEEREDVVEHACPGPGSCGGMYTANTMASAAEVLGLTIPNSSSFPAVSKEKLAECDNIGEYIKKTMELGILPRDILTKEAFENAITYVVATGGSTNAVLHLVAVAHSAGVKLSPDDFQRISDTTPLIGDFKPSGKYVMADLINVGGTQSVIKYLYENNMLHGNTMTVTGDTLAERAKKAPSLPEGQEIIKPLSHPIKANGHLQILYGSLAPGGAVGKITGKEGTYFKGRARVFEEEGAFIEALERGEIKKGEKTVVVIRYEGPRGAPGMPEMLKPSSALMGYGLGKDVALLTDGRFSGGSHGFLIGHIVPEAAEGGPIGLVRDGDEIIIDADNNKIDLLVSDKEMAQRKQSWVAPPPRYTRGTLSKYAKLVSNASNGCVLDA
UniProt P19882: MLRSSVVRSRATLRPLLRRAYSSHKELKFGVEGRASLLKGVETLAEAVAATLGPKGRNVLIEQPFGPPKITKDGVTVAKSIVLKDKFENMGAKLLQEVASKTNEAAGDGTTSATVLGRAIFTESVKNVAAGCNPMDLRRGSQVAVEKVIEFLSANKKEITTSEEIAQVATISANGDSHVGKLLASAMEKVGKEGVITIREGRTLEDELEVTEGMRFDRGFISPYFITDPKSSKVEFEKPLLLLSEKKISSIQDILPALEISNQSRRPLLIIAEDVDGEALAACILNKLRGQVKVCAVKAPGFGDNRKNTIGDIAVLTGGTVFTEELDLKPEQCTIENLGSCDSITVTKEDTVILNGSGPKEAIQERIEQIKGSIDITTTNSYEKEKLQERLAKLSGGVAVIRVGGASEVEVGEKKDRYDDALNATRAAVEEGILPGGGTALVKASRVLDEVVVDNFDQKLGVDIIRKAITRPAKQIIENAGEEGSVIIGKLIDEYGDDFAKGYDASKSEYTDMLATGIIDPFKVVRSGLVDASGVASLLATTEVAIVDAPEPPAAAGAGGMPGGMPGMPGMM
UniProt P34227: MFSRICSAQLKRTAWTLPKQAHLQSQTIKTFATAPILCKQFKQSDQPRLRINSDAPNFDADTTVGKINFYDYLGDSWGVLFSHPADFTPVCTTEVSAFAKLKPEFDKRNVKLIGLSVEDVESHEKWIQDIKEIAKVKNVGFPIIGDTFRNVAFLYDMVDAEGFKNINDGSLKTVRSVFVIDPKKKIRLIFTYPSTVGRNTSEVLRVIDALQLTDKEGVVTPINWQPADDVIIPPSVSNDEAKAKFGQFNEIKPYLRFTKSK
UniProt P35191: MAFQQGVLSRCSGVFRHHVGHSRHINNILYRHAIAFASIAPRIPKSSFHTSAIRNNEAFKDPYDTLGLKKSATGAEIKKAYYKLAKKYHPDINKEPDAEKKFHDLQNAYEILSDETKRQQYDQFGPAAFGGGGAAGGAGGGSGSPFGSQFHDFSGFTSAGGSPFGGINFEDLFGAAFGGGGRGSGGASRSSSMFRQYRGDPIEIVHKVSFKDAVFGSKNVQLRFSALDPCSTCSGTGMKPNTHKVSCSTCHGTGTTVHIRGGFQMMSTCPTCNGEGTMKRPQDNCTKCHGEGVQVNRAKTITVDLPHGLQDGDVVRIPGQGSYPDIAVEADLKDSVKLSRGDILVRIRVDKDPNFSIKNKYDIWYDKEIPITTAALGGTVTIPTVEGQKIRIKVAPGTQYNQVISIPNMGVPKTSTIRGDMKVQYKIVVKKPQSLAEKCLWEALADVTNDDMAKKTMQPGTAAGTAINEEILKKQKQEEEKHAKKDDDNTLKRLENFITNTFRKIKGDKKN
UniProt P00447: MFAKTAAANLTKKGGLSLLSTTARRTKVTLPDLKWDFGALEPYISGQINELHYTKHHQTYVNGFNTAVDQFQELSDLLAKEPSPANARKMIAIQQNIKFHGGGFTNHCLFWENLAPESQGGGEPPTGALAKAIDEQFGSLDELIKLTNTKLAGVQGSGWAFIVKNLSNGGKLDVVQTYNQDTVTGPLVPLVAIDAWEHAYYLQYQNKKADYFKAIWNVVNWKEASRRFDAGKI
UniProt P23180: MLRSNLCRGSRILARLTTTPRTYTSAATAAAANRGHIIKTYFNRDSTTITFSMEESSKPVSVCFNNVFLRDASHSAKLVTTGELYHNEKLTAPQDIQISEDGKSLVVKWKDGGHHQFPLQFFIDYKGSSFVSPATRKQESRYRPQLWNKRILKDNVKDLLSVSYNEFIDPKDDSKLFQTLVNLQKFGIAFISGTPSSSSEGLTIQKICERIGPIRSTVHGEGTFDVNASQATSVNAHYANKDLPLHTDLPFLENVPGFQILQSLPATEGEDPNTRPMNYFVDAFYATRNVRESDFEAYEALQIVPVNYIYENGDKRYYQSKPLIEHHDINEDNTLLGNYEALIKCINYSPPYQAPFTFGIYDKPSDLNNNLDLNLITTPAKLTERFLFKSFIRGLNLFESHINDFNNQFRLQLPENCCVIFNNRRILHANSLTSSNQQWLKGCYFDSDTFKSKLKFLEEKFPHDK
UniProt P08067: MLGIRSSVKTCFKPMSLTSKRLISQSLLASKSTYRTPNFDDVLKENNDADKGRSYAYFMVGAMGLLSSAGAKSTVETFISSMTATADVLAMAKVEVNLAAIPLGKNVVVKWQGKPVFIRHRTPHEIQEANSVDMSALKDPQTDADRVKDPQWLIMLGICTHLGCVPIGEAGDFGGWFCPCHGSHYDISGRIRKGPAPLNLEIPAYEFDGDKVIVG

For experiment [1], the target named is Hsp104-GFP (S. cerevisiae) (UniProt P31539). In words: affinity purification with mass spectrometry; Hsp104-GFP captured on GFP-Trap magnetic agarose (nanotrap) from gently lysed wild-type and Δrpn4 yeast cells, clogger induced with 0.5% galactose for 6 h; 1 h at 4°C; lysis buffer with 1% Nonidet P-40; hits by enrichment over a DHFR-GFP pull-down; label-free LC-MS/MS.

The target is the same in experiment [2]. In words: condition: only cells expressing the DHFR control instead of the clogger; affinity purification with mass spectrometry; as a1, but cells expressed the cytosolic DHFR control instead of the clogger (no clogger).
For experiment [3] the target is unchanged. In words: affinity purification with mass spectrometry; Hsp104-GFP captured on GFP-Trap magnetic agarose (nanotrap) from gently lysed wild-type and Δrpn4 yeast cells, clogger induced with 0.5% galactose for 6 h; 1 h at 4°C; lysis buffer with 1% Nonidet P-40; hits by enrichment over a DHFR-GFP pull-down; label-free LC-MS/MS. This is another data set of the same source.

Experiment [4] has the same target. In words: affinity purification with mass spectrom.

Results are given in words; binding and its absence hold for the method and conditions named. In cells and extracts the contact can be indirect. Here binding means that the protein was enriched with, or labelled near, the bait; the list need not be complete. For some of these results: A no says only that the protein was not detected with the bait.

Regarding Cox8 (from UniProt P04039), the binding entry in experiment [1] is given as “binds”.
The same measure, in the same setting: to Arg5,6 (from UniProt Q01217) belongs “binds”.
The same measure, in the same setting: in the case of Tdh2 (from UniProt P00358 1-332) it was “binds”.
For the molecule Pdb1 (from UniProt P32473), the binding entry in experiment [1] was “binds”.
Mam33 (from UniProt P40513): in experiment [1], the binding result is recorded as “binds”.
Take “small heat shock protein Hsp42 (from UniProt Q12329 1-375)”: the binding result in experiment [2] is on record as “no binding”; in experiment [1] it was “binds”.
For Atp14 (from UniProt Q12349), the binding entry in experiment [1] was “binds”.
For Cox13 (from UniProt P32799), the binding entry in experiment [1] is “binds”.
On to Ilv3 (from UniProt P39522), for which the binding entry in experiment [1] is on record as “binds”.
With Hsp60 (from UniProt P19882), in experiment [1], the binding entry is reported as “binds”.
On the same count and under the same terms, in the case of Prx1 (from UniProt P34227) it was “binds”.
For Mdj1 (from UniProt P35191), the binding result in experiment [1] is reported as “binds”.
Same read-out and setting: to Sod2 (from UniProt P00447) belongs “binds”; to Aim17 (from UniProt P23180), “binds”; to Rip1 (from UniProt P08067), “binds”.

B1: small heat shock protein Hsp26 (protein, UniProt P15992 1-214)
chain: MSFNSPFFDFFDNINNEVDAFNRLLGEGGLRGYAPRRQLANTPAKDSTGKEVARPNNYAGALYDPRDETLDDWFDNDLSLFPSGFGFPRSVAVPVDILDHDNNYELKVVVPGVKSKKDIDIEYHQNKNQILVSGEIPSTLNEESKDKVKVKESSSGKFKRVITLPDYPGVDADNIKADYANGVLTLTVPKLKPQKDGKNHVKKIEVSSQESWGN
For B1, the binding result in experiment [2] was “no binding”; in experiment [3], “binds”.

B2: Sse1 (protein, UniProt P32589 1-693)
chain: MSTPFGLDLGNNNSVLAVARNRGIDIVVNEVSNRSTPSVVGFGPKNRYLGETGKNKQTSNIKNTVANLKRIIGLDYHHPDFEQESKHFTSKLVELDDKKTGAEVRFAGEKHVFSATQLAAMFIDKVKDTVKQDTKANITDVCIAVPPWYTEEQRYNIADAARIAGLNPVRIVNDVTAAGVSYGIFKTDLPEGEEKPRIVAFVDIGHSSYTCSIMAFKKGQLKVLGTACDKHFGGRDFDLAITEHFADEFKTKYKIDIRENPKAYNRILTAAEKLKKVLSANTNAPFSVESVMNDVDVSSQLSREELEELVKPLLERVTEPVTKALAQAKLSAEEVDFVEIIGGTTRIPTLKQSISEAFGKPLSTTLNQDEAIAKGAAFICAIHSPTLRVRPFKFEDIHPYSVSYSWDKQVEDEDHMEVFPAGSSFPSTKLITLNRTGDFSMAASYTDITQLPPNTPEQIANWEITGVQLPEGQDSVPVKLKLRCDPSGLHTIEEAYTIEDIEVEEPIPLPEDAPEDAEQEFKKVTKTVKKDDLTIVAHTFGLDAKKLNELIEKENEMLAQDKLVAETEDRKNTLEEYIYTLRGKLEEEYAPFASDAEKTKLQGMLNKAEEWLYDEGFDSIKAKYIAKYEELASLGNIIRGRYLAKEEEKKQAIRSKQEASQMAAMAEKLAAQRKAEAEKKEEKKDTEGDVDMD
Consider B2, for which the binding result is on record as “no binding” in experiment [2] and “binds” in experiment [3].

B3: yeast prion protein Rnq1 (protein, UniProt P25367 1-405)
chain: MDTDKLISEAESHFSQGNHAEAVAKLTSAAQSNPNDEQMSTIESLIQKIAGYVMDNRSGGSDASQDRAAGGGSSFMNTLMADSKGSSQTQLGKLALLATVMTHSSNKGSSNRGFDVGTVMSMLSGSGGGSQSMGASGLAALASQFFKSGNNSQGQGQGQGQGQGQGQGQGQGSFTALASLASSFMNSNNNNQQGQNQSSGGSSFGALASMASSFMHSNNNQNSNNSQQGYNQSYQNGNQNSQGYNNQQYQGGNGGYQQQQGQSGGAFSSLASMAQSYLGGGQTQSNQQQYNQQGQNNQQQYQQQGQNYQHQQQGQQQQQGHSSSFSALASMASSYLGNNSNSNSSYGGQQQANEYGRPQQNGQQQSNEYGRPQYGGNQNSNGQHESFNFSGNFSQQNNNGNQNRY
B3: the binding result in experiment [4] is “binds”.

B4: J-domain protein Sis1 (protein, UniProt P25294 1-352)
chain: MVKETKLYDLLGVSPSANEQELKKGYRKAALKYHPDKPTGDTEKFKEISEAFEILNDPQKREIYDQYGLEAARSGGPSFGPGGPGGAGGAGGFPGGAGGFSGGHAFSNEDAFNIFSQFFGGSSPFGGADDSGFSFSSYPSGGGAGMGGMPGGMGGMHGGMGGMPGGFRSASSSPTYPEEETVQVNLPVSLEDLFVGKKKSFKIGRKGPHGASEKTQIDIQLKPGWKAGTKITYKNQGDYNPQTGRRKTLQFVIQEKSHPNFKRDGDDLIYTLPLSFKESLLGFSKTIQTIDGRTLPLSRVQPVQPSQTSTYPGQGMPTPKNPSQRGNLIVKYKVDYPISLNDAQKRAIDENF
For the molecule B4, the binding entry in experiment [3] is “binds”.
